Assay results reported in US20240336588A1, “COMPOSITIONS AND METHODS FOR ANTIOXIDANT AND ANTI-INFLAMMATORY THERAPEUTICS” (AVANTI BIOSCIENCES INC., priority 2021, published 2024).

By UniProt entry, the sequences of proteins in these tests, tags left out. Chains listed by the source or under a name are the forms on record and can include a tag or linker.
UniProt Q9Y463, other isoform, or with tags, fused parts or gaps: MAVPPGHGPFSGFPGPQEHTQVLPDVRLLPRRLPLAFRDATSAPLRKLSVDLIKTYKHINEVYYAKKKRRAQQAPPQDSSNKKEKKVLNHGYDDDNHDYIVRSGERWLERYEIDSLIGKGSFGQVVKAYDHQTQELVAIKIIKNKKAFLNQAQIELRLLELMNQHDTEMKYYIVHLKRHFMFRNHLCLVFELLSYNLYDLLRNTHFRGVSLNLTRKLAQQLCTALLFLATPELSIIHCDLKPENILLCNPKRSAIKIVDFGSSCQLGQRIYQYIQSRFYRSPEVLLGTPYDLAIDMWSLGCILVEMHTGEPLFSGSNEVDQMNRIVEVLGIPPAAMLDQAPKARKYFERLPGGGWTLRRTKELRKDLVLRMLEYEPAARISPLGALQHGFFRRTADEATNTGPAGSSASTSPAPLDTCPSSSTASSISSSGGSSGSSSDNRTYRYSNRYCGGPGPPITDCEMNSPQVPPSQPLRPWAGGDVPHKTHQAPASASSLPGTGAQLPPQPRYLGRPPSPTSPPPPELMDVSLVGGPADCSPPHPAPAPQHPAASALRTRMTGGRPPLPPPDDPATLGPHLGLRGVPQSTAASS

Molecular target: DYRK1B (GST tagged full length human DYRK1B isoform p65) (Homo sapiens (Human), UniProt Q9Y463)
Assay: DYRK1B ELISA assay
Type: biochemical
Details: 70 ng GST-DYRK1B, kinase reaction time 60 min
Procedure: DYRK1A assay. […] After blocking, wells were washed extensively with dilution buffer before subjecting to phosphorylation. […] At the end point, wells were washed with ˜350 μl dilution buffer three times to terminate the reaction. […] Each point was run in quadruplicate with DMSO present in all assays at 0.2% final concentration. […] HT-PRD phosphorylation was subsequently determined by the sandwich antibody staining protocol, first with 100 μl mouse mAb 3D3 specific for detecting DYRK1A-phosphorylated PRD (60 min at room temperature) then with 100 μl alkaline phosphatase (AP)-linked anti-mouse secondary antibody (60 min at room temperature), followed by colorimetric reaction with 100 μl PNPP solution (PNPP substrate tablet, Thermo Fisher). […] The readings were then recorded for subsequent IC50 calculation. The DYRK1A assay protocol can also support DYRK1B and DYRK2 phosphorylation reactions in the enzyme concentration-dependent manner; therefore, the method was adapted for measuring the activity of candidate compounds against DYRK1B and DYRK2. […]
Data transformation, calculation, plotting, curve fitting, and IC 50 calculation were performed in KaleidaGraph (http://www.synergy.com/wordpress_650164087; Mac version 4.1). Data was corrected for background (readings from wells with only PNPP) before subsequent manipulations. […]

SMILES | IC50 [nM]
O=C(O[C@@H]1Cc2c(O)cc(O)cc2O[C@H]1c1cc(O)c(O)c(O)c1)c1cc(O)c(O)c(O)c1 [Compound 4, (2S,3R)-5,7-dihydroxy-2-(3,4,5-trihydroxyphenyl)chroman-3-yl 3,4,5-trihydroxybenzoate] | > 100
O=C(O[C@@H]1Cc2c(O)cc(O)cc2O[C@@H]1c1cc(O)c(O)c(O)c1)c1cc(O)c(O)c(O)c1 [Compound 3, (2R,3R)-5,7-dihydroxy-2-(3,4,5-trihydroxyphenyl)chroman-3-yl 3,4,5-trihydroxybenzoate, reference compound] | > 100
